Values of other authors in patent US7473437B2, “Method of forming fluorescent image, fluorescent image, and ink-jet recording method” (Canon Kabushiki Kaisha, priority 2004, dated 2009).
At least one compound was matched to its structure with a doubt left.

Details: cited from earlier work

Structure (SMILES): CCN=c1cc2oc3cc(NCC)c(C)cc3c(-c3ccccc3C(=O)OCC)c-2cc1C.Cl [Rhodamine 6G(C.I.45160), Rhodamine 6G]
- Color under daylight: Red
- fluorescent color: Yellow toorange
